The source of these data is patent US20240317845A1 (NINGBO SANSHENG BIOLOGICAL TECHNOLOGY, published 2024).

The experiment concerns the target 6-25 fragment of inhibin α-subunits coupled to chicken ovalbumin (OVA) (porcine (fragment said to be 100% identical in mice, rats, pigs, cattle and goats); chicken) (UniProt P01012). The experiment is described as follows: indirect ELISA, plate coated with 6-25 fragment-OVA, culture supernatant.

No constants are given. Whether binding was seen depends on the method and setting. Some results given as binding are weak or reduced against the parent protein; the word gives no strength.

B1: anti-inhibin monoclonal antibody 1E5 secreted by hybridoma cell line 1E57 (antibody, V domains shown)
VH: EVKLVESGPELKKPGETVKISCKASGYTFTDYSMHWVKQAPGKGLKWMGWINTETGEPTYADDFKGRFAFSLETSASTAYLQINNLKNEDTATYFCAYYGPPTYSLDYWGQGASVTVSS
VL: DIQMTQTTSSLSASLGDRVTISCRASQGISNYLNWYQQKPDGTVKLLIYYTSRLLSGVPSRFSGSGSGTDYSLTISNLEQEDIATYFCQQGYTLPFTFGSGTKLEIK
notes: Mouse hybridoma antibody; Tested as culture supernatant, as ascites and as Protein G purified ascites antibody; also called 1E57 culture supernatant; ascites-derived monoclonal antibody 1E5
For B1, the binding entry is listed as “binds”.
